Among the data in article PMC4413655 are binding values, retold here.

Protein sequences, listed by entry. Tags and fused reporters are not part of them.
UniProt P42224: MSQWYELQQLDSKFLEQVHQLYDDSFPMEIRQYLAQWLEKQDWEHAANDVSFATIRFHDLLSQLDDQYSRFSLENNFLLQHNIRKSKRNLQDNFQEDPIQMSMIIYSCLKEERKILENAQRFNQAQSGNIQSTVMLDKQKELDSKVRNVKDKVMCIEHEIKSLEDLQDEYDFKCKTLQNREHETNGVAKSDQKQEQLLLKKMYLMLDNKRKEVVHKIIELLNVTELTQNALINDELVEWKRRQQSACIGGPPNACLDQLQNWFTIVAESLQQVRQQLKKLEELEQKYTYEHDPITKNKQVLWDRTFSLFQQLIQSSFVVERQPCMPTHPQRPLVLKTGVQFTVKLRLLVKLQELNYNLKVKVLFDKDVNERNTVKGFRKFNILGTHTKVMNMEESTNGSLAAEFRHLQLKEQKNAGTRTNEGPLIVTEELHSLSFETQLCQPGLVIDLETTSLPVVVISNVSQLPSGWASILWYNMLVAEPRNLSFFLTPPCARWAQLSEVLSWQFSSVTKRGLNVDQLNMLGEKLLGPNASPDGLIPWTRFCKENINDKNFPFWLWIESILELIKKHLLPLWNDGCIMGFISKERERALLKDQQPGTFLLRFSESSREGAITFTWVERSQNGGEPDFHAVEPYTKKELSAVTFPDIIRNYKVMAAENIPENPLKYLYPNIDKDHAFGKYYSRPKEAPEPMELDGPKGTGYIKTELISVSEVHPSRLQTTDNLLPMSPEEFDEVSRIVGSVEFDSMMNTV

These are yes or no findings as the source states them, for the method shown. In cells and extracts the contact can be indirect. Some binding calls cover weakened binding; strength is not graded here. For part of these data: Tags and fused reporters may be left off the sequences shown.

Test [1] addresses T1, IFIT3-STrEP-tag fusion protein (IFN-induced protein with tetratricopeptide repeats 3 fused at its C-end to the One-STrEP Tag) (human) (UniProt O14879).
T1 sequence: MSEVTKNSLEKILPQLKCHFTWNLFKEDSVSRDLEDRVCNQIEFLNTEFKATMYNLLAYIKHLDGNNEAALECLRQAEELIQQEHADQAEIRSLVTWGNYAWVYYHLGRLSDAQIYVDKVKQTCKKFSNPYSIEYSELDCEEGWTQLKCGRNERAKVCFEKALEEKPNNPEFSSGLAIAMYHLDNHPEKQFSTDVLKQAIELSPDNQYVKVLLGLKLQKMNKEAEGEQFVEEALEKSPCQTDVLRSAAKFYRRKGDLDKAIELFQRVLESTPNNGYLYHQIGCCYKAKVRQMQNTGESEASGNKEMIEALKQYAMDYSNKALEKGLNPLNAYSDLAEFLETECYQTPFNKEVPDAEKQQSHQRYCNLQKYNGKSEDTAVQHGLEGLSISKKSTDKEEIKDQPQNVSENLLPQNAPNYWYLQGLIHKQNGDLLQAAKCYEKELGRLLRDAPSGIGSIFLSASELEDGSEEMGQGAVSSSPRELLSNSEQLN
Description: pull-down; One-STrEP affinity chromatography: lysate of L3.6pl cells transfected with pEXPR-IFIT3 bound on affinity columns, extensively washed, eluted with biotin buffer; fractions analysed by Western blot; empty-vector lysate as negative control. (In general: In western blotting, separated proteins are transferred to a membrane and probed.)

Test [2] deals with Signal Transducers and Activators of Transcription 1 (STAT1) (human (endogenous in L3.6pl)) (UniProt P42224). Description: co-IP; immunoprecipitation with anti-JNK and anti-STAT1 antibodies from L3.6pl lysate, Western blot with anti-IFIT3 antibody.

For the molecule “Signal Transducers and Activators of Transcription 1 (STAT1) (from UniProt P42224 1-750)”, in test [1], the binding entry was “binds”.

As to “EGFR (from UniProt P00533 25-1210) (receptor)”, in test [1], the binding entry is “no binding”.

B1: IFN-induced protein with tetratricopeptide repeats 3 (IFIT3) (protein, UniProt O14879 1-490)
chain: T1 sequence
For the molecule B1, in test [2], the binding result was “binds”.
